According to the supplement of paper PMC8256030:
Values joined by “and” are separate entries in the source; they are usually repeats but may differ in a detail not shown here. Equal values may be shown once. Where a name gives a salt, the structure may show the parent alone. Some of the results follow. This data set is noisy: repeats of one test often differ as much as different tests do.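 HEK293T cells were given each compound shortly before transfection with a reporter in which red mCherry is followed by the SARS-CoV-2 frameshift element and then GFP in the −1 frame, so GFP appears only after frameshifting.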

system: SARS-CoV-2 -1 PRF reporter mCherry-FSE-GFP(-1); assay: mCherry (red) intensity as percent of control; higher = higher upstream reporter expression; settings: 10 µM; 24 h; HEK293T

Point of comparison: `CN1CCN(C(c2ccccc2)c2ccc(Cl)cc2)CC1` (stereo not given), mCherry 96.8%. Against it:
- N[C@@H](Cc1cc(I)c(Oc2cc(I)c(O)c(I)c2)c(I)c1)C(=O)O [L-thyroxine] — higher, 99%
- CNC(=C[N+](=O)[O-])NCCSCc1csc(CN(C)C)n1 — higher, 110%
- CCCN(CCC)C(=O)C(Cc1ccc(OCCN(CC)CC)cc1)NC(=O)c1ccccc1 (stereo not given) [tiropramide] — lower, 77.5%
- CC(C1=C(CCN(C)C)Cc2ccccc21)c1ccccn1 (stereo not given) [dimetindene] — lower, 90.2%
- CC(C)CCCC(C)N (stereo not given) [octodrine] — lower, 88.1%
- CCOc1cc(N)c(Cl)cc1C(=O)NCC1CN(Cc2ccc(F)cc2)CCO1 (stereo not given) [mosapride] — lower, 87.7%
- N=C(N)N — higher, 105%
- O=C(CNC(=O)c1ccc(Cl)cc1)NO [benurestat] — higher, 98.3%
- Cc1ccccc1N1CCN(CCc2nnc3n2CCCC3)CC1 [dapiprazole] — lower, 71.2%
- CCCCCCCCCCCCCCCC[N+](C)(C)C [cetrimonium bromide] — lower, 18.6%
- O=C1c2ccccc2C(=O)C1c1ccccc1 [phenindione] — lower, 89.2%
- CC(=O)N1CCC(c2ccc(C(=O)N=C(N)N)cc2C(F)(F)F)CC1 — lower, 69.3%
- CN(C)S(=O)(=O)c1ccc2c(c1)N(CCCN1CCC(CCO)CC1)c1ccccc1S2 [pipotiazine] — lower, 84.9%
- CCN(CCO)CCCC(C)Nc1ccnc2cc(Cl)ccc12 (stereo not given) — lower, 86.5%
- O=C(O)C1CSC(C(=O)O)N1 (stereo not given) [tidiacic] — lower, 77.8%
- O=C1CCC(c2ccc(-n3ccnc3)cc2)=NN1 [imazodan] — lower, 94.2%
- Cc1c(O)cccc1C(=O)N[C@@H](CSc1ccccc1)[C@H](O)CN1C[C@H]2CCCC[C@H]2C[C@H]1C(=O)NC(C)(C)C [nelfinavir] — lower, 74.6%
- C[C@@H](c1nc(-c2ccc(C#N)cc2)cs1)[C@](O)(Cn1cncn1)c1ccc(F)cc1F [ravuconazole] — lower, 40.5%
- N[C@@H](Cc1cc(I)c(Oc2cc(I)c(O)c(I)c2)c(I)c1)C(=O)O — higher, 109%
- CC(=O)OCC(=O)[C@@]1(O)CC[C@H]2[C@@H]3CCC4=CC(=O)C=C[C@]4(C)[C@@]3(Cl)[C@@H](Cl)C[C@@]21C — higher, 98.3%
- CO[C@@H]1[C@@H](O[C@@H]2O[C@H](C)[C@@H](O[C@H]3C[C@@](C)(O)[C@@H](OC(=O)CC(C)C)[C@H](C)O3)[C@H](N(C)C)[C@H]2O)[C@@H](CC=O)C[C@@H](C)[C@@H](O)/C=C/C=C/C[C@@H](C)OC(=O)C[C@H]1OC(C)=O [Josacine] — higher, 102%
- CCOCc1nc2c(N)nc3ccccc3c2n1CC(C)(C)O [resiquimod] — lower, 73.9%
- C#Cc1cccc(Nc2ncnc3cc(OCCOC)c(OCCOC)cc23)c1 [erlotinib] — lower, 45.5%
- CCOC(=O)NNC(C)c1ccccc1 (stereo not given) [carbenzide] — higher, 107%
- CCC[C@H](NC(=O)[C@@H]1[C@H]2CCC[C@H]2CN1C(=O)[C@@H](NC(=O)[C@@H](NC(=O)c1cnccn1)C1CCCCC1)C(C)(C)C)C(=O)C(=O)NC1CC1 [Incivik] — higher, 101%
- Cc1nnc(C(C)C)n1C1C[C@H]2CC[C@@H](C1)N2CC[C@H](NC(=O)C1CCC(F)(F)CC1)c1ccccc1 (stereo in doubt) [maraviroc] — lower, 70.5%
- C/N=C(/NC)NCc1ccc(OC)cc1 [meobentine] — higher, 101%
- C[S+](CC[C@H](N)C(=O)[O-])C[C@H]1O[C@@H](n2cnc3c(N)ncnc32)[C@H](O)[C@@H]1O (stereo not given in full) [ademetionine] — lower, 95.7%
- COc1ccccc1OCC(O)COC(N)=O (stereo not given) [methocarbamol] — lower, 90.3%
- O=C(CCCCCCCC(=O)NCCO)NCCO [adelmidrol] — lower, 75.3%
- CC1=C(CC(=O)O)c2cc(F)ccc2/C1=C\c1ccc([S+](C)[O-])cc1 (stereo not given) — higher, 118%
- c1ccc([C@H]2CN3CCSC3=N2)cc1 [levamisole] — lower, 96.5%
- Cc1c(O)cccc1C(=O)N[C@@H](CSc1ccccc1)[C@H](O)CN1C[C@H]2CCCC[C@H]2C[C@H]1C(=O)NC(C)(C)C [Nelfinavir mesylate] — lower, 78.5%
- Cc1cc(C)[n+](/N=C(\[O-])c2ccc(Cl)c(S(N)(=O)=O)c2)c(C)c1 [besulpamide] — lower, 72.8%
- Cc1cc(CC(C)CC(C)(C)C)n(O)c(=O)c1 (stereo not given) [piroctone] — higher, 97.4%
- CC1(C)[C@@H](O)CC[C@]2(C)[C@H]3C(=O)C=C4[C@@H]5C[C@@](C)(C(=O)O)CC[C@]5(C)CC[C@@]4(C)[C@]3(C)CC[C@@H]12 [enoxolone] — higher, 111%

With `OCCN(CCO)c1nc(N2CCCCC2)c2nc(N(CCO)CCO)nc(N3CCCCC3)c2n1` [dipyridamole] the mCherry was 97.4% and 86%.
For `CCOC(=O)C1=C(COCCN)NC(C)=C(C(=O)OC)C1c1ccccc1Cl` (stereo not given) [amlodipine], the mCherry was 93.4% and 108%.
With `N[C@@H](Cc1c[nH]c2ccccc12)C(=O)O` [tryptophan] the mCherry was 94.6% and 72.1%.

system: SARS-CoV-2 -1 PRF reporter mCherry-FSE-GFP(-1); assay: percent effect, decrease of GFP/mCherry ratio (-1 PRF reporter) relative to controls; higher = stronger frameshift inhibition; settings: 10 µM; 24 h; HEK293T

Point of comparison: `C#Cc1cccc(Nc2ncnc3cc(OCCOC)c(OCCOC)cc23)c1` [erlotinib], percent effect -8.95%. Against it:
- N[C@@H](Cc1cc(I)c(Oc2cc(I)c(O)c(I)c2)c(I)c1)C(=O)O [L-thyroxine] — higher, -1.19%
- CNC(=C[N+](=O)[O-])NCCSCc1csc(CN(C)C)n1 — higher, -6.47%
- CCCN(CCC)C(=O)C(Cc1ccc(OCCN(CC)CC)cc1)NC(=O)c1ccccc1 (stereo not given) [tiropramide] — higher, -1.28%
- CC(C1=C(CCN(C)C)Cc2ccccc21)c1ccccn1 (stereo not given) [dimetindene] — higher, -1.83%
- CC(C)CCCC(C)N (stereo not given) [octodrine] — higher, 0.905%
- CCOc1cc(N)c(Cl)cc1C(=O)NCC1CN(Cc2ccc(F)cc2)CCO1 (stereo not given) [mosapride] — higher, -5.57%
- N=C(N)N — higher, 1.54%
- O=C(CNC(=O)c1ccc(Cl)cc1)NO [benurestat] — higher, -2.47%
- Cc1ccccc1N1CCN(CCc2nnc3n2CCCC3)CC1 [dapiprazole] — higher, 2.38%
- CCCCCCCCCCCCCCCC[N+](C)(C)C [cetrimonium bromide] — lower, -19.2%
- O=C1c2ccccc2C(=O)C1c1ccccc1 [phenindione] — higher, -2.61%
- CC(=O)N1CCC(c2ccc(C(=O)N=C(N)N)cc2C(F)(F)F)CC1 — higher, -0.169%
- CN(C)S(=O)(=O)c1ccc2c(c1)N(CCCN1CCC(CCO)CC1)c1ccccc1S2 [pipotiazine] — higher, -0.694%
- CCN(CCO)CCCC(C)Nc1ccnc2cc(Cl)ccc12 (stereo not given) — lower, -34.5%
- O=C(O)C1CSC(C(=O)O)N1 (stereo not given) [tidiacic] — lower, -10.4%
- O=C1CCC(c2ccc(-n3ccnc3)cc2)=NN1 [imazodan] — higher, 4.19%
- Cc1c(O)cccc1C(=O)N[C@@H](CSc1ccccc1)[C@H](O)CN1C[C@H]2CCCC[C@H]2C[C@H]1C(=O)NC(C)(C)C [nelfinavir] — higher, 2.54%
- C[C@@H](c1nc(-c2ccc(C#N)cc2)cs1)[C@](O)(Cn1cncn1)c1ccc(F)cc1F [ravuconazole] — lower, -16%
- N[C@@H](Cc1cc(I)c(Oc2cc(I)c(O)c(I)c2)c(I)c1)C(=O)O — higher, 2.49%
- CC(=O)OCC(=O)[C@@]1(O)CC[C@H]2[C@@H]3CCC4=CC(=O)C=C[C@]4(C)[C@@]3(Cl)[C@@H](Cl)C[C@@]21C — higher, -0.568%
- CO[C@@H]1[C@@H](O[C@@H]2O[C@H](C)[C@@H](O[C@H]3C[C@@](C)(O)[C@@H](OC(=O)CC(C)C)[C@H](C)O3)[C@H](N(C)C)[C@H]2O)[C@@H](CC=O)C[C@@H](C)[C@@H](O)/C=C/C=C/C[C@@H](C)OC(=O)C[C@H]1OC(C)=O [Josacine] — higher, -2.44%
- CCOCc1nc2c(N)nc3ccccc3c2n1CC(C)(C)O [resiquimod] — higher, 1.82%
- CCOC(=O)NNC(C)c1ccccc1 (stereo not given) [carbenzide] — higher, 0.0554%
- CCC[C@H](NC(=O)[C@@H]1[C@H]2CCC[C@H]2CN1C(=O)[C@@H](NC(=O)[C@@H](NC(=O)c1cnccn1)C1CCCCC1)C(C)(C)C)C(=O)C(=O)NC1CC1 [Incivik] — higher, -3.61%
- Cc1nnc(C(C)C)n1C1C[C@H]2CC[C@@H](C1)N2CC[C@H](NC(=O)C1CCC(F)(F)CC1)c1ccccc1 (stereo in doubt) [maraviroc] — higher, -3.57%
- C/N=C(/NC)NCc1ccc(OC)cc1 [meobentine] — higher, -3.47%
- C[S+](CC[C@H](N)C(=O)[O-])C[C@H]1O[C@@H](n2cnc3c(N)ncnc32)[C@H](O)[C@@H]1O (stereo not given in full) [ademetionine] — higher, 1.33%
- COc1ccccc1OCC(O)COC(N)=O (stereo not given) [methocarbamol] — higher, -2.67%
- O=C(CCCCCCCC(=O)NCCO)NCCO [adelmidrol] — higher, -7.66%
- CC1=C(CC(=O)O)c2cc(F)ccc2/C1=C\c1ccc([S+](C)[O-])cc1 (stereo not given) — higher, -2.56%
- c1ccc([C@H]2CN3CCSC3=N2)cc1 [levamisole] — higher, -3.15%
- Cc1c(O)cccc1C(=O)N[C@@H](CSc1ccccc1)[C@H](O)CN1C[C@H]2CCCC[C@H]2C[C@H]1C(=O)NC(C)(C)C [Nelfinavir mesylate] — higher, -4.38%
- Cc1cc(C)[n+](/N=C(\[O-])c2ccc(Cl)c(S(N)(=O)=O)c2)c(C)c1 [besulpamide] — higher, -1.88%
- Cc1cc(CC(C)CC(C)(C)C)n(O)c(=O)c1 (stereo not given) [piroctone] — higher, -3.27%
- CC1(C)[C@@H](O)CC[C@]2(C)[C@H]3C(=O)C=C4[C@@H]5C[C@@](C)(C(=O)O)CC[C@]5(C)CC[C@@]4(C)[C@]3(C)CC[C@@H]12 [enoxolone] — higher, 2.89%
- CN1CCN(C(c2ccccc2)c2ccc(Cl)cc2)CC1 (stereo not given) — higher, 2.14%

For `OCCN(CCO)c1nc(N2CCCCC2)c2nc(N(CCO)CCO)nc(N3CCCCC3)c2n1` [dipyridamole], the percent effect was -10.7% and -11.3%.
With `CCOC(=O)C1=C(COCCN)NC(C)=C(C(=O)OC)C1c1ccccc1Cl` (stereo not given) [amlodipine] the percent effect was -0.864% and -9.01%.
In the case of `N[C@@H](Cc1c[nH]c2ccccc12)C(=O)O` [tryptophan], the percent effect is reported as -1.12% and -3.06%.
